Laboratory results reported in publication PMC5958098, “The trimeric solution structure and fucose-binding mechanism of the core fucosylation-specific lectin PhoSL” (Scientific Reports, 2018).
These are yes or no findings as the source states them, for the method shown. Some results given as binding are weak or reduced against the parent protein; the word gives no strength.

Biological target: PhoSL peptide (core α1–6 fucosylation-specific lectin from Pholiota squarrosa), chemically synthesized, 40 residues (Pholiota squarrosa)
Test: NMR solution structure; 0.3 mM PhoSL peptide, 20 mM d11-Tris-HCl pH 7.5, 1 mM d10-DTT, 308 K; symmetric trimer calculated from NOEs with NCS restraints; both purified

B1: PhoSL peptide (core α1–6 fucosylation-specific lectin from Pholiota squarrosa), chemically synthesized, 40 residues (peptide)
chain: APVPVTKLVCDGDTYKCTAYLDYGDGKWVAQWDTAVFHTT
notes: PhoSL lectin of Pholiota squarrosa; it corresponds to the first of three PhoSL-like repeats of the 180-residue polypeptide; numbers count on: the 40-residue peptide; No N-terminal acetylation and no C-terminal amidation; Cys10 and Cys17 were reduced (DTT) in the NMR samples; Homotrimer by gel filtration combined with cross-linking, and by the NMR structure; also called PhoSL trimer; source: …
B1 was tested, and the binding was “binds”.
